The text below walks through data of PMC6333852.

The target of experiment [1] is α-actinin-4 (ACTN4) (human (endogenous in hBMECs)) (UniProt O43707). Nature of the experiment: co-IP; anti-ACTN4 antibody immunoprecipitation from lysates of hBMECs, uninfected or infected (PCN033, RS218 or SC19), with or without AG1478 pretreatment; western blotting.
The target of experiment [2] is epidermal growth factor receptor (EGFR) (human (endogenous in hBMECs)) (UniProt P00533). Briefly: co-IP; anti-EGFR antibody immunoprecipitation from lysates of serum-starved hBMECs, uninfected or infected (E. coli PCN033, RS218 or S. suis SC19, MOI 10, over time), with or without Cytochalasin D pretreatment; western blotting. (In general: A western blot detects proteins with antibodies after separation by electrophoresis.)

These are yes or no findings as the source states them, for the method shown. Binding seen in cells or lysates may run through a third protein. Some results given as binding are weak or reduced against the parent protein; the word gives no strength.

Consider “epidermal growth factor receptor (EGFR) (from UniProt P00533 25-1210)”, for which the binding result in experiment [1] was “binds”.
As for “α-actinin-4 (ACTN4) (from UniProt O43707 1-911)”, in experiment [2], the binding result is “binds”.
